Values quoted from earlier work, collected in US20170233414A1, “DERIVATIVES OF BODIPY” (OREGON HEALTH & SCIENCE UNIVERSITY, priority 2016, published 2017).
For at least one compound, name, drawing or mass did not settle the structure.

Conditions: in 0.1 M NaOH; reference for max absorbance up to 510 nm; cited from earlier work

O=C1OC2(c3ccc(O)cc3Oc3cc(O)ccc32)c2ccccc21 [Fluorescein]
φfl (quantum yield): 0.91
